{"sequences": {"note": "Sequences of proteins named here, by UniProt entry; tags and fusion partners are left off.", "UniProt P56524": "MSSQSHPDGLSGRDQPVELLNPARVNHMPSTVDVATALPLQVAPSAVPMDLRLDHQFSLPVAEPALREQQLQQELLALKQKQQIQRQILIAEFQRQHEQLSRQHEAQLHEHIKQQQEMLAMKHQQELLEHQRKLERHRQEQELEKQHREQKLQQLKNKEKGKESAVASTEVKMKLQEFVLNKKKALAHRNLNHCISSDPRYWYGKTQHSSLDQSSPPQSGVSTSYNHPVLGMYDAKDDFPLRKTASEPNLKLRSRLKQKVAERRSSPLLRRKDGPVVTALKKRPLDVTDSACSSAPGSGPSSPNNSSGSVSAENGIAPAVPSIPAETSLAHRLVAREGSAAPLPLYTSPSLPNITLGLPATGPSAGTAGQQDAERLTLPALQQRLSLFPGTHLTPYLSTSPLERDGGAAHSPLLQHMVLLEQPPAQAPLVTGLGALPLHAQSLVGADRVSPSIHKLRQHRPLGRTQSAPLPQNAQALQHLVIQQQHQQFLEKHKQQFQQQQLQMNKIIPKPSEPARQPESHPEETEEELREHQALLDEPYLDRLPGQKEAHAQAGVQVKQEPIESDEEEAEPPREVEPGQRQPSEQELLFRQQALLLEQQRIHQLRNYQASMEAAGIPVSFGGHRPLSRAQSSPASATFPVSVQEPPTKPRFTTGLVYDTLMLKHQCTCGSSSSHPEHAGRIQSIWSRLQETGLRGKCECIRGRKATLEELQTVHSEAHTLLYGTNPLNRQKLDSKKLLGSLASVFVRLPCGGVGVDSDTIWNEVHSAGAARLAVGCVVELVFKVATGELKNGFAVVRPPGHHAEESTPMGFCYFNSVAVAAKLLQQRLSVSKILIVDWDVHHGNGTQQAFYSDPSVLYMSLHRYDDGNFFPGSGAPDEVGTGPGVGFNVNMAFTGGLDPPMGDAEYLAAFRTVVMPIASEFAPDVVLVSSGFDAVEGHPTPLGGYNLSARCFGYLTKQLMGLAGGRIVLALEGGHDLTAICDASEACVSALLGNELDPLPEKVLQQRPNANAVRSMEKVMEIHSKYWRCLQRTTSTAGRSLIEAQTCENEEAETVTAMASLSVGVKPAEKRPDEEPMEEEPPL", "UniProt O15379": "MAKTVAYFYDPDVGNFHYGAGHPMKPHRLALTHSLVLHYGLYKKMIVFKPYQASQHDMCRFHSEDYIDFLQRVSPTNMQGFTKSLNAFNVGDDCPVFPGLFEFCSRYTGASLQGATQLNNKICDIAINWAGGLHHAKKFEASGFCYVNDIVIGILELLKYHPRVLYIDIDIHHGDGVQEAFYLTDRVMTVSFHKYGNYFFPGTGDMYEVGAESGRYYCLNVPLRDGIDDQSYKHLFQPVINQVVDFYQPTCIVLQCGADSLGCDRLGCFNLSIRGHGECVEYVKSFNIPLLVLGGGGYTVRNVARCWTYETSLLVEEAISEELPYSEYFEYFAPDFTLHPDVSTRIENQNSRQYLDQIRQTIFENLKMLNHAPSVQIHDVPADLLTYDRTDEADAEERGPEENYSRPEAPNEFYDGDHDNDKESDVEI"}, "source": "paper doi:10.1101/2025.10.14.682279", "target": "Flag-HDAC4-WT (wild-type histone deacetylase 4) (human) (UniProt P56524)", "test": "co-IP", "note": "No constants are given. Whether binding was seen depends on the method and setting. In cells and extracts the contact can be indirect. Some entries that bind do so weakly or less than the wild type.", "data": [{"substance": "HDAC3 (from UniProt O15379 1-428)", "values": [{"measurement": "binding", "value": "binds"}]}]}
